Assay results reported in the supplement of paper PMC8728848.
Some of the results follow.

Assays:
Assay in all cases: glycan array binding signal (z-score within array); higher = stronger binding
Settings in all cases: glycan notation: IUPAC condensed, linker removed
[1] = target: Gal(b1-3)GlcNAc(b1-2)Man(a1-3)[Gal(b1-3)GlcNAc(b1-2)Man(a1-6)]Man(b1-4)GlcNAc(b1-4)[Fuc(a1-6)]GlcNAc
Method in brief: (§1)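 The binding signal is a Z-score computed within each array. Data were drawn from 3228 arrays in the Consortium for Functional Glycomics database, restricted to those with a known protein sequence. Scores were averaged over arrays of the same protein sequence at different concentrations or buffers, and over linkers, and negative values can be taken as non-binding.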

[2] = target: Gal(b1-3)GlcNAc(b1-2)Man(a1-3)[GlcNAc(b1-4)][Gal(b1-3)GlcNAc(b1-2)Man(a1-6)]Man(b1-4)GlcNAc(b1-4)GlcNAc
Method in brief: as §1

[3] = target: Gal(b1-3)GlcNAc(b1-2)[Gal(b1-3)GlcNAc(b1-6)]Man(a1-6)[Gal(b1-3)GlcNAc(b1-2)Man(a1-3)]Man(b1-4)GlcNAc(b1-4)GlcNAc
Method in brief: as §1

[4] = target: Gal(b1-3)GlcNAc(b1-3)Gal(b1-3)GlcNAc
Method in brief: as §1

[5] = target: Gal(b1-3)GlcNAc(b1-3)Gal(b1-4)Glc
Method in brief: as §1

[6] = target: Gal(b1-3)GlcNAc(b1-3)Gal(b1-4)GlcNAc
Method in brief: as §1

[7] = target: Gal(b1-3)GlcNAc(b1-3)Gal(b1-4)GlcNAc(b1-2)Man(a1-3)[Gal(b1-3)GlcNAc(b1-3)Gal(b1-4)GlcNAc(b1-2)Man(a1-6)]Man(b1-4)GlcNAc(b1-4)GlcNAc
Method in brief: as §1

[8] = target: Gal(b1-3)GlcNAc(b1-3)Gal(b1-4)GlcNAc(b1-2)[Gal(b1-3)GlcNAc(b1-3)Gal(b1-4)GlcNAc(b1-6)]Man(a1-6)[Gal(b1-3)GlcNAc(b1-3)Gal(b1-4)GlcNAc(b1-2)Man(a1-3)]Man(b1-4)GlcNAc(b1-4)[Fuc(a1-6)]GlcNAc
Method in brief: as §1

[9] = target: Gal(b1-3)GlcNAc(b1-3)Gal(b1-4)GlcNAc(b1-3)Gal(b1-4)GlcNAc(b1-2)[Gal(b1-3)GlcNAc(b1-3)Gal(b1-4)GlcNAc(b1-3)Gal(b1-4)GlcNAc(b1-6)]Man(a1-6)[Gal(b1-3)GlcNAc(b1-3)Gal(b1-4)GlcNAc(b1-3)Gal(b1-4)GlcNAc(b1-2)Man(a1-3)]Man(b1-4)GlcNAc(b1-4)[Fuc(a1-6)]GlcNAc
Method in brief: as §1

[10] = target: Gal(b1-3)GlcNAc(b1-3)Gal(b1-4)GlcNAc(b1-6)[Gal(b1-3)GlcNAc(b1-3)]Gal(b1-4)Glc
Method in brief: as §1

[11] = target: Gal(b1-3)GlcNAc(b1-3)Gal(b1-4)[Fuc(a1-3)]GlcNAc
Method in brief: as §1

[12] = target: Gal(b1-3)GlcNAc(b1-3)Gal(b1-4)[Fuc(a1-3)]GlcNAc(b1-6)[Gal(b1-3)GlcNAc(b1-3)]Gal(b1-4)Glc
Method in brief: as §1

[13] = target: Gal(b1-3)GlcNAc(b1-3)GalNAc
Method in brief: as §1

[14] = target: Gal(b1-3)GlcNAc(b1-6)Gal(b1-4)GlcNAc
Method in brief: as §1

[15] = target: Gal(b1-3)GlcNAc(b1-6)GalNAc
Method in brief: as §1

[16] = target: Gal(b1-3)GlcNAc(b1-6)[Gal(b1-3)]GalNAc
Method in brief: as §1

Gal(b1-3)GlcNAc6S = target: Gal(b1-3)GlcNAc6S
Method in brief: as §1

[17] = target: Gal(b1-3)[Fuc(a1-4)]GlcNAc
Method in brief: as §1

[18] = target: Gal(b1-3)[Fuc(a1-4)]GlcNAc(b1-2)Man
Method in brief: as §1

[19] = target: Gal(b1-3)[Fuc(a1-4)]GlcNAc(b1-2)Man(a1-3)[Gal(b1-3)[Fuc(a1-4)]GlcNAc(b1-2)Man(a1-6)]Man(b1-4)GlcNAc(b1-4)[Fuc(a1-6)]GlcNAc
Method in brief: as §1

[20] = target: Gal(b1-3)[Fuc(a1-4)]GlcNAc(b1-3)Gal(b1-3)[Fuc(a1-4)]GlcNAc
Method in brief: as §1

[21] = target: Gal(b1-3)[Fuc(a1-4)]GlcNAc(b1-3)Gal(b1-4)[Fuc(a1-3)]GlcNAc
Method in brief: as §1

[22] = target: Gal(b1-3)[Fuc(a1-4)]GlcNAc(b1-6)GalNAc
Method in brief: as §1

[23] = target: Gal(b1-3)[GlcNAc(b1-6)]GalNAc
Method in brief: as §1

[24] = target: Gal(b1-3)[Neu5Ac(a2-6)]GalNAc
Method in brief: as §1

[25] = target: Gal(b1-3)[Neu5Ac(a2-6)]GlcNAc(b1-4)Gal(b1-4)Glc
Method in brief: as §1

[26] = target: Gal(b1-3)[Neu5Ac(b2-6)]GalNAc
Method in brief: as §1

Gal(b1-4)Gal = target: Gal(b1-4)Gal
Method in brief: as §1

[27] = target: Gal(b1-4)GalNAc(a1-3)[Fuc(a1-2)]Gal(b1-4)GlcNAc
Method in brief: as §1

[28] = target: Gal(b1-4)GalNAc(b1-3)[Fuc(a1-2)]Gal(b1-4)GlcNAc
Method in brief: as §1

Gal(b1-4)Glc = target: Gal(b1-4)Glc
Method in brief: as §1

Gal(b1-4)Glc6S = target: Gal(b1-4)Glc6S
Method in brief: as §1

Gal(b1-4)GlcNAc = target: Gal(b1-4)GlcNAc
Method in brief: as §1

[29] = target: Gal(b1-4)GlcNAc(a1-6)Gal(b1-4)GlcNAc
Method in brief: as §1

Gal(b1-4)GlcNAc(b1-2)Man = target: Gal(b1-4)GlcNAc(b1-2)Man
Method in brief: as §1

[30] = target: Gal(b1-4)GlcNAc(b1-2)Man(a1-3)Man(b1-4)GlcNAc(b1-4)GlcNAc
Method in brief: as §1

[31] = target: Gal(b1-4)GlcNAc(b1-2)Man(a1-3)[Gal(b1-4)GlcNAc(b1-2)Man(a1-6)]Man(b1-4)GlcNAc(b1-4)GlcNAc
Method in brief: as §1

B1: PX9961KLbvu-535-38-535 (Bacteroides vulgatus) (protein)
chain: DKAYTDAESYTKGLHKIYSVWALSGQDGSSSSDISGLDAGNTALLRCWWTLQEQPTDEMKNAWNDAWCTEVNYMTWTTNKVEPIEGVYQRCMYIVALVNEFLKNIPNAPESIDKESYIAQARFNRAFAYYVLMDMFALPPFITEKNYSIEPAPLSREDLFNWIEAELNEIKPNLPSPRSEYGVADQAVASALLARMYLNAEIYTGKARYTECINACNEVIKAGYQLADNYADLFKADNGENPDTKKEIIYPIIFDGDKTQSWGMAAIIIGARGAEDKDVLLAHSGVDQGWAGFRATSNLVHLFDFQNDEEPKASEIQDKRGIFYDKGRSIDITSSVSGTFETEGWSVFKFSNLNSNGQPGKNTLWVDTDFPMFRLGDIYLMYAEAVARGGEGSKASAVEYINALRKRAYGDDKHNISENWLEENNFRNLLDERGRELYWEGIRRTDLVRFDLLTSGSYTWDFKGGINTGVGVNKRYNVYPIPVTDLTVNGNLQQNEGY
glycan array binding signal (z-score) [1]: -0.623 | glycan array binding signal (z-score) [2]: 0.359 | glycan array binding signal (z-score) [3]: -0.229 | glycan array binding signal (z-score) [4]: -0.549 | glycan array binding signal (z-score) [5]: -1.03 | glycan array binding signal (z-score) [6]: 0.002 | glycan array binding signal (z-score) [7]: -0.083 | glycan array binding signal (z-score) [8]: 0.403 | glycan array binding signal (z-score) [9]: 0.333 | glycan array binding signal (z-score) [10]: -0.446 | glycan array binding signal (z-score) [11]: 0.922 | glycan array binding signal (z-score) [12]: -0.623 | glycan array binding signal (z-score) [13]: -0.68 | glycan array binding signal (z-score) [14]: -0.398 | glycan array binding signal (z-score) [15]: -0.11 | glycan array binding signal (z-score) [16]: -0.352 | glycan array binding signal (z-score) (Gal(b1-3)GlcNAc6S): 0.353 | glycan array binding signal (z-score) [17]: -0.123 | glycan array binding signal (z-score) [18]: -0.21 | glycan array binding signal (z-score) [19]: 0.228 | glycan array binding signal (z-score) [20]: -0.394 | glycan array binding signal (z-score) [21]: -1.16 | glycan array binding signal (z-score) [22]: 0.535 | glycan array binding signal (z-score) [23]: -0.541 | glycan array binding signal (z-score) [24]: -0.357 | glycan array binding signal (z-score) [25]: 0.322 | glycan array binding signal (z-score) [26]: 0.222 | glycan array binding signal (z-score) (Gal(b1-4)Gal): -0.111 | glycan array binding signal (z-score) [27]: -0.291 | glycan array binding signal (z-score) [28]: -0.673 | glycan array binding signal (z-score) (Gal(b1-4)Glc): -0.043 | glycan array binding signal (z-score) (Gal(b1-4)Glc6S): 0.941 | glycan array binding signal (z-score) (Gal(b1-4)GlcNAc): -0.213 | glycan array binding signal (z-score) [29]: -0.503 | glycan array binding signal (z-score) (Gal(b1-4)GlcNAc(b1-2)Man): 0.434 | glycan array binding signal (z-score) [30]: 0.158 | glycan array binding signal (z-score) [31]: -0.667
